Experimental data published in PubChem BioAssay AID540256 (National Center for Advancing Translational Sciences (NCATS), 2011).
The campaign covered roughly 300,000 compounds. About 3,700 (1.2%) were called active. This list was built around the results that the source calls inconclusive (neither active nor inactive); the mix of calls is not that of the screen. Calls come from the whole dose curve; tested in HEK293 cells. Potencies of inconclusive entries are doubtful fits and often do not repeat.

Experiment: qHTS for Inhibitors of binding or entry into cells for Lassa Virus; note: nearly all actives have a fitted effect of over 50% in size
Conditions: Lassa virus pseudotype entry inhibition, cell reporter; activity change, negative = inhibition: at 37.9 µM (top of the series) unless noted
% is set by controls: 0 for no effect and ±100 for the full control effect; potency is the fitted concentration of half-maximal effect.

| SMILES | Potency | activity change, negative = inhibition |
| --- | --- | --- |
| Cc1ccccc1OCC(=O)N1CCC2(CC1)CC(=O)c1ccccc1O2 | inconclusive: 5.01 µM [inhibitor, partial curve, poor fit] |  |
| COc1cccc2c(C)cc3nnc(SCC(=O)Nc4ccc(C)cc4)n3c12 |  | inactive: -20.9% [at 46.1 µM] |
| O=C(CN1C(=O)NC(c2ccc(F)cc2)C1=O)NC1CCCCC1 (centres undefined) |  | inactive: 8.11% |
| CC(C)(C)OC(=O)N1CCC(c2c(C(=O)N3CCN(c4ccccn4)CC3)cnn2-c2ccc(F)cc2)CC1 | inconclusive: 5.62 µM [inhibitor, single point] |  |
| O=C1NC(=O)N(Cc2ccccc2)C(=O)/C1=C/N1CCCc2ccccc21 | inconclusive: 6.51 µM [inhibitor, partial curve, poor fit] |  |
| COc1ccc(N(Cc2cc3cc(OC)ccc3[nH]c2=O)C(=O)C2CCCO2)cc1 (centres undefined) |  | inactive: -9.03% |
| CCCCCCN1C[C@H](n2cc(C3CC3)nn2)[C@@H](O)C[C@H]1c1ccc(OC)cc1 | inconclusive: 7.05 µM [inhibitor, full curve] |  |
| O=[N+]([O-])c1ccccc1OCc1nc(-c2cccs2)no1 | inconclusive: 2.82 µM [activator, single point] |  |
| Cc1ccc(NC(=O)CNC(=O)c2ccc(Oc3ccccc3)cc2)nc1 | inconclusive: 0.112 µM [inhibitor, full curve, poor fit] |  |
| CCOC(=O)C1CCN(C(=O)C2CCCN(S(=O)(=O)c3ccc(OCC)c(Cl)c3)C2)CC1 (centres undefined) | inconclusive: 35.5 µM [inhibitor, single point] |  |
| c1ccc(-n2cnnc2SCc2cn3cccnc3n2)cc1 |  | inactive: 9.78% |
| CCCC(=O)Nc1ccc2oc(-c3ccc(OC)c(Br)c3)nc2c1 |  | inactive: 6.77% |
| CCc1nnc(NC(=O)CSc2ccc(-c3nc4ccccc4[nH]3)cn2)s1 | inconclusive: 16.4 µM [activator, single point] |  |
| CC#CCN(CC#CC)S(=O)(=O)c1ccc(S(=O)(=O)N2CCOCC2)cc1 | inconclusive: 9.2 µM [inhibitor, partial curve, poor fit] |  |
| Cc1cccn2cc(-c3cccc(NC(=O)C(C)C)c3)nc12 |  | inactive: 13.6% [at 46.1 µM] |
| COc1cc(C(=O)NC(=S)N(CCc2ccccc2)CCc2ccccc2)cc(OC)c1OC | inconclusive: 17.8 µM [inhibitor, partial curve, poor fit] |  |
| O=C(O)c1cccc(Nc2nc(-c3ccccc3)nc3ccccc23)c1 |  | inactive: 10.1% |
| Cc1cc(Br)ccc1NC(=O)CN(C)C(=O)C1CCN(c2ncnc3sc(C)c(C)c23)CC1 | inconclusive: 8.91 µM [inhibitor, partial curve, poor fit] |  |
| CC(=O)c1c(C)[nH]c(C(=O)C(C)Sc2nnc(NC3CC3)s2)c1C (centres undefined) | inconclusive: 14.1 µM [inhibitor, partial curve, poor fit] |  |

No new results follow: 2 of the compounds above.

| SMILES | Potency | activity change, negative = inhibition |
| --- | --- | --- |
| COc1cc(C(=O)NC(=S)N(CCc2ccccc2)CCc2ccccc2)cc(OC)c1OC | inconclusive: 17.8 µM [inhibitor, partial curve, poor fit] |  |
| O=C(O)c1cccc(Nc2nc(-c3ccccc3)nc3ccccc23)c1 |  | inactive: 10.1% |
